# Assay results published in publication PMC4864241.
# These are yes or no findings as the source states them, for the method shown. In cells and extracts the contact can be indirect. Some results given as binding are weak or reduced against the parent protein; the word gives no strength. Sequences can lack the tags named with a protein.
# B1: HA-Mio (protein, UniProt Q9VQ89 1-867)
# chain: MSGNTHGLSWFPHFPDKFVSWGQEIHLYEVRRKDDHSQKSRLPYISVNYLANESRYQYARCVAASYHSDQPIIAVGLADGKVGICNFRDTYDSSWEYTPRQQRMCTCLAWNELDANILAIGHDRHRNDTCITIWDIERGVPKETANFFGVGESANSICWDRNHRTVIAGMSQKMIKLFDLRQSNATCQSIQTKTVQGLSVSPNGNYLCSYVDSVITLWDPRNIKSPLRQIQSSKNHLQIAWCPTRTSLLSSLQRDSSYITLYDIRSVDTDNSGEIYHVKRQISPFPARYQHSGKFSFVNCLSWHSRDFERALLLADALNILDFRLPATLHTAHSNRRKLPLLMQRPLYTPASPTSTAATPTQQQPTSSCSTNSGSSLDFSTPGGSPFNVDLLKPELFELDLVDETRQRALEDYGIKPDNKRFGELHLTPYLRNVWSTLNNVYSEDRLTGLKATLGINLGHTSEALMASSRIESQVLQWPEGINNSNKLICYRSEQRDLALQLCGWAFEQELDRFIDQLYANKEYSRAAMICVFHLKIFHACNILSSAADNMRDPSMYRITVIALSSFNADRCSSTWRNQRSSANMQIHDPHLRAVFSFLTMEKDNFDAVLKEEGVSLSDRMAFACKYLSETKLADYVAQQIQAAIDGGDLNGLLLTGESQDGIDILQSYMDTSFDVQTVALVAINYFRQELFEDKRIQYWIASYLDHLNSWGLWEKRAELDIKIESIRPSSRSSRTVFLSCNFCGKSVSNALLDEPRPRSTTTSTNRLSSCPSCRKPLPRCSLCLMHMGTMVNMSNGETPTTTPDVPGWQTKPFSKWFSWCQTCRHGGHTEHIMQWFKQNSECPVSSCNCRCFDMDGTKPNTLRDIS
# B2: HA-Seh1 (protein, UniProt Q7K2X8 1-354)
# chain: MFDVEPIIADHKDVIHDVVFDYYGRRMATCSSDQTVKIWDEDGQGKWNVTSSWKAHSGSIWRVSWAHPEFGQVVATCSFDRTASVWEEVIGEKVSSTNTPTRRWVRRTTLVDSRTSVTDVEFAPKYLGLLLATASADGIIRIYEAPDIMNLSQWPVQHEISNKLPLSCLSWNTSTYMVTQLLAAGSDEAATPTGKVFLFAYSENSRKCVKIDTVNDITDPVTDVAFAPNAGRTFHMLAVASKDLYIVNLRGVTDATDISKLDIQTIKFSEHNCPVWRVCWNMLATMLISTGDDGCVRLWRMNYNRQWRCAAVLKAEGSGPTYEPAPPTPTLATTASATAKFYKKGTIGNQVPWH
# B3: V5-Nprl3 (protein, UniProt Q9VUB4 1-610)
# chain: METNVNPLAVILVYFDSKGDRLLYRYPYQTLGQTEVANDEQRKSRKRNPYAVANTDDLLQTPTHLGAAKSQGQLQGFADEVLSALFAVKPQLCNQKFELKLNDVRFVSHPTLIPQKEQRSGPMAKQQMLINIVFALHAQASYSIVKCYHELSKRLGLALKFEEQRSGYLTEQTAQMARTHDEQQQQPLERTLELIAERCSLAQALRSIFHDLCTTGLLSTSLNHNLTLCFCLPAKAHQLHKKGSMVDPETIDRCLRALKPYHGMLLLVDFAELLDCVPPTGARMLWQLVDVYDPLISLQSMSSNADLSIEHVYKLVSHLVYWAKATIIYPLCETNVYVIAPDAPLHTKSHLVEKFSARFAGMSLFEVISDFSLPTSIGHLTTPLQQPARQGILAQMVIWMLQHHLLMQLHTYVQFMPSEDEFGDSASCSNHLRDAISDEEGDQEPDADELHGSMLSMSSHPLPVPAVLVGGHRREASEDHSSLASDNIAVQPSSSHKSNFSITASMSTDNCDSLDSMEDEQKLKELLQVFSDADRAAIRRIPASANVDDLSLLVKLYQMGYFKSEHHLEEIMYFENLRRSQLLQLLDKFRDVLIIYETEDPAIASMYNTK
# Biological target: T1, GFP-Wdr24 (Drosophila Wdr24, CG7609) (Drosophila melanogaster) (UniProt Q9XZ25)
# T1 sequence: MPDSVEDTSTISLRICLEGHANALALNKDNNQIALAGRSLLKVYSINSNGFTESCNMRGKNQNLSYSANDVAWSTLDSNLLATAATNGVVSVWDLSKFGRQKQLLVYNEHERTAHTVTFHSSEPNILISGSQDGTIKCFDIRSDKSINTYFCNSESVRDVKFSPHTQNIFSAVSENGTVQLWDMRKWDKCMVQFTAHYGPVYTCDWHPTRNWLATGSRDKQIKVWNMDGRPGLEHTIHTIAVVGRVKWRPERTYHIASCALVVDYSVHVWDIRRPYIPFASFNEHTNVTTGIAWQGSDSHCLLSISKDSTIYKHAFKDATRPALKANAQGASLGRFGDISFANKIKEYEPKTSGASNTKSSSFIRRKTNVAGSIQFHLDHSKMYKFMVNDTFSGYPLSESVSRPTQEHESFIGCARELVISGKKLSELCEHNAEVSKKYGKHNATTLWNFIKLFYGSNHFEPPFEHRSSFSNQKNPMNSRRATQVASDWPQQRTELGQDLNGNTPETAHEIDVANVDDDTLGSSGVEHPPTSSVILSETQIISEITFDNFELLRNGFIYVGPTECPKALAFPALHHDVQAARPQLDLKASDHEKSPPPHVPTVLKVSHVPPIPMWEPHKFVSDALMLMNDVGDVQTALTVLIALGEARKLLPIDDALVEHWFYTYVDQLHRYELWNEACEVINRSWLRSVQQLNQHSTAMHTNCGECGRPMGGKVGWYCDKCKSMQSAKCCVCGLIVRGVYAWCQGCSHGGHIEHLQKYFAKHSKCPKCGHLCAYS
# Test: co-IP; S2 cells co-transfected with the tagged proteins; lysates immunoprecipitated with GFP antibody (2 ug, protein G agarose and protein A agarose); Western blot with HA, V5 and GFP antibodies
row,Binder,binding
1,B1,binds
2,B2,binds
3,B3,binds
